Assay results: the supplement of paper PMC7666118
Some of the results follow.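 Rule for the calls: active = dose-dependent thermal stabilisation significant by F-test of dose-response against flat model at 10% FDR; inactive = not significant.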

Protein sequences, listed by entry. Tags and fused reporters are not part of them. Lines headed by an entry give the natural chain unless they say otherwise; changes in a name come on top.
UniProt P17098: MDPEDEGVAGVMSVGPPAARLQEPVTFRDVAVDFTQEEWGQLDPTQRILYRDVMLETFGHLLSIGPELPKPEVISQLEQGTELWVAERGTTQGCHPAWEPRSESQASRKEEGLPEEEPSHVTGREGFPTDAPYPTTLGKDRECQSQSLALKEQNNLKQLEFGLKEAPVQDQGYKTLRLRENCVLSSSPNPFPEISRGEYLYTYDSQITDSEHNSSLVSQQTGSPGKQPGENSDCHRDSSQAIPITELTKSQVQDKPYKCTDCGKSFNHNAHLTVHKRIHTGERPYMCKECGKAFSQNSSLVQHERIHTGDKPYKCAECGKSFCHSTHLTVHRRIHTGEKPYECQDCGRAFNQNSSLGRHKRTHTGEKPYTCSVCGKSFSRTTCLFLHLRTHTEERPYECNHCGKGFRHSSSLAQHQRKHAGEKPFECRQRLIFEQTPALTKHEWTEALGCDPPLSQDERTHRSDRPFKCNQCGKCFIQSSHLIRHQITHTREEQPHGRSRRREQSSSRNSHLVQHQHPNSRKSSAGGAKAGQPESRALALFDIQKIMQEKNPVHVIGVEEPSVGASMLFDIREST
UniProt Q6P2D0: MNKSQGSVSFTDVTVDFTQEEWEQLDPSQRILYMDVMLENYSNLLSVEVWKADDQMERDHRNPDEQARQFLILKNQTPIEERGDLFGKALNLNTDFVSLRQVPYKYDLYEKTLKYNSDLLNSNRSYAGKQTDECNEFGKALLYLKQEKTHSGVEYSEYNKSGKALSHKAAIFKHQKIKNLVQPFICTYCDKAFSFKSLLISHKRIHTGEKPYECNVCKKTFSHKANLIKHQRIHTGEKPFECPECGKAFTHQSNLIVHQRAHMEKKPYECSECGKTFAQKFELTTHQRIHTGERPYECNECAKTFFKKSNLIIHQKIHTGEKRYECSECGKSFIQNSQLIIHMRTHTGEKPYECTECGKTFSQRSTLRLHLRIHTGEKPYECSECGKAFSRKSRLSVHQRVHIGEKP
UniProt Q8N1G0: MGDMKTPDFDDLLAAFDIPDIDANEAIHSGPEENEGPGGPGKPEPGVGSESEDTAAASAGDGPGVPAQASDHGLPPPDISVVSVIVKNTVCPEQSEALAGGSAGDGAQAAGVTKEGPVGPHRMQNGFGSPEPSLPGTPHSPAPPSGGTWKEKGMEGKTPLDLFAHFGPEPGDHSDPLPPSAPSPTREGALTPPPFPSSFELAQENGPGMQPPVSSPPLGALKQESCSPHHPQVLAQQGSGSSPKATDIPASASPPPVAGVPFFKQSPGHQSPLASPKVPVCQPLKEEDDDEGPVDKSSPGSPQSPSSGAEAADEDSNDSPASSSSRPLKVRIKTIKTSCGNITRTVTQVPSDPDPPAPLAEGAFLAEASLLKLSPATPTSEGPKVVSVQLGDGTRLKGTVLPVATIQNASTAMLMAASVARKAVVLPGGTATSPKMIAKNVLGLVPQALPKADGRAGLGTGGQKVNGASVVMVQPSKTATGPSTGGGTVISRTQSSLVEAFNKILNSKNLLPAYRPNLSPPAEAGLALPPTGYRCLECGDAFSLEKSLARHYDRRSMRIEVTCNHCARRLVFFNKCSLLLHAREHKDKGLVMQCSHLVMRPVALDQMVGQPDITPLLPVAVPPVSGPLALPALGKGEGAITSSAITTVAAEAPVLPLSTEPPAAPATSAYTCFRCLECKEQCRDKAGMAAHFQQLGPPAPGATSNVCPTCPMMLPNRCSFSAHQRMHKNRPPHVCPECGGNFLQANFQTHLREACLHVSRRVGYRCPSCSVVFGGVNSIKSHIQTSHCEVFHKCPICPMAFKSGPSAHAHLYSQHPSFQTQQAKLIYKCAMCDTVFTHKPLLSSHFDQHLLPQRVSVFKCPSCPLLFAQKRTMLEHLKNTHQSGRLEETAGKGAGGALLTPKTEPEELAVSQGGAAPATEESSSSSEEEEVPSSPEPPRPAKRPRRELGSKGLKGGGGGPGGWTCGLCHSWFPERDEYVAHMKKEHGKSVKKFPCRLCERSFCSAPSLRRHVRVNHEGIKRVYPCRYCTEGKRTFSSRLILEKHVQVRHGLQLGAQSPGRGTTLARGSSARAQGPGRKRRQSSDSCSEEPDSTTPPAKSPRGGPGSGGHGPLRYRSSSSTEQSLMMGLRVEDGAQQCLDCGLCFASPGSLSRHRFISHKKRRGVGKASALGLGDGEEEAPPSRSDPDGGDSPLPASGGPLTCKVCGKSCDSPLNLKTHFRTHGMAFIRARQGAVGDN
UniProt Q6FIF0: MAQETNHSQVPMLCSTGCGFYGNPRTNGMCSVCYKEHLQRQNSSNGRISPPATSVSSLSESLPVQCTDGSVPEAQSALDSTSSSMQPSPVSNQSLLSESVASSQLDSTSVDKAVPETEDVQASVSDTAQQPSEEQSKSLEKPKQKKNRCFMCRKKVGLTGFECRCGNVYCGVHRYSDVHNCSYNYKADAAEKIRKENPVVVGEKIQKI
UniProt Q96B54: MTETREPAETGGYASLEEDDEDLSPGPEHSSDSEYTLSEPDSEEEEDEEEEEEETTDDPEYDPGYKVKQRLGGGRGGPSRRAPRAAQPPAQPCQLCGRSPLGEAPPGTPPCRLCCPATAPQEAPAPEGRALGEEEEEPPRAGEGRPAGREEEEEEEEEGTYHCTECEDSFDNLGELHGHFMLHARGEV
UniProt Q9NWK9: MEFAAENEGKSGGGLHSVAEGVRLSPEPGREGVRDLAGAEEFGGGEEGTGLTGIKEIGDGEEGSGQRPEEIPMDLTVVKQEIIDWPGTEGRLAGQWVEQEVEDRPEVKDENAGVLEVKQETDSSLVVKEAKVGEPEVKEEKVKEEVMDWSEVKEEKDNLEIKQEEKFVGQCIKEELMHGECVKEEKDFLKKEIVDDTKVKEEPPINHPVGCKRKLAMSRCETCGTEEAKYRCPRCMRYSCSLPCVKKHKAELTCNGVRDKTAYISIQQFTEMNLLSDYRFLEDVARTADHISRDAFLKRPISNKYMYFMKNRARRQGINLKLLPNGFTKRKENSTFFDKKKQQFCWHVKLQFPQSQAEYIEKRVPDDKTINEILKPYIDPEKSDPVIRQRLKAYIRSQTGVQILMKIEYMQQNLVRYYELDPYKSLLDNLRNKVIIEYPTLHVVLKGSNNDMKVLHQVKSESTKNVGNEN
UniProt Q8IYH5: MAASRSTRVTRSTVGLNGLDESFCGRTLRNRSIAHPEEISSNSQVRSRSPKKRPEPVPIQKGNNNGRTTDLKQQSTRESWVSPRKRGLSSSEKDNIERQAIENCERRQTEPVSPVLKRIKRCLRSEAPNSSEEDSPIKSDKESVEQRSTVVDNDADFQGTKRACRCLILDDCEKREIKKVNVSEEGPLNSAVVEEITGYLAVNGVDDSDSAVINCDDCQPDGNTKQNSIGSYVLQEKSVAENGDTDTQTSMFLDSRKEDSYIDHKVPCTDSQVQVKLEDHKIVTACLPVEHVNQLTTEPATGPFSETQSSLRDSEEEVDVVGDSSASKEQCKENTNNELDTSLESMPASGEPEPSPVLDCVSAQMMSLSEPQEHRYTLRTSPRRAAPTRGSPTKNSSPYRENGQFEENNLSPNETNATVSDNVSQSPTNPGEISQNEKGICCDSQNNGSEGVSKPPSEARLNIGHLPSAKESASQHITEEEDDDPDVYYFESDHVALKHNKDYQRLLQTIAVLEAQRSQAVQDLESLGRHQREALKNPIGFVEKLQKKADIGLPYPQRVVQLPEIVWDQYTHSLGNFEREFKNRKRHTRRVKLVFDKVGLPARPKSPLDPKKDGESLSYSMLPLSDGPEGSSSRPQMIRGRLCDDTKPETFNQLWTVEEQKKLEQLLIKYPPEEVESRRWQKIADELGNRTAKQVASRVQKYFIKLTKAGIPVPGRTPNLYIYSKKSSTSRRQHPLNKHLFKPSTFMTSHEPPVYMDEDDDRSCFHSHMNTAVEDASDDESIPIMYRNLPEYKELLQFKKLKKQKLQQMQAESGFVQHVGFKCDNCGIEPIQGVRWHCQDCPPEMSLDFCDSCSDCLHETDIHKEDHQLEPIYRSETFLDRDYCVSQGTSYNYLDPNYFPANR
UniProt O95159: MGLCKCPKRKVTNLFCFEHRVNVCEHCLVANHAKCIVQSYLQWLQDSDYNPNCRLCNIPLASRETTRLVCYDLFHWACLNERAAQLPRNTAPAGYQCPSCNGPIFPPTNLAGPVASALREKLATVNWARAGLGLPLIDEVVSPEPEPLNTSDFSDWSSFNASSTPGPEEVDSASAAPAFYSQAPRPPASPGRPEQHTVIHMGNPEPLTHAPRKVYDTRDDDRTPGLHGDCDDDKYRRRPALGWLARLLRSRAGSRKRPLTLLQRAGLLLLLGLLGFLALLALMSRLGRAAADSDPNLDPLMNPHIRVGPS
UniProt Q9H900: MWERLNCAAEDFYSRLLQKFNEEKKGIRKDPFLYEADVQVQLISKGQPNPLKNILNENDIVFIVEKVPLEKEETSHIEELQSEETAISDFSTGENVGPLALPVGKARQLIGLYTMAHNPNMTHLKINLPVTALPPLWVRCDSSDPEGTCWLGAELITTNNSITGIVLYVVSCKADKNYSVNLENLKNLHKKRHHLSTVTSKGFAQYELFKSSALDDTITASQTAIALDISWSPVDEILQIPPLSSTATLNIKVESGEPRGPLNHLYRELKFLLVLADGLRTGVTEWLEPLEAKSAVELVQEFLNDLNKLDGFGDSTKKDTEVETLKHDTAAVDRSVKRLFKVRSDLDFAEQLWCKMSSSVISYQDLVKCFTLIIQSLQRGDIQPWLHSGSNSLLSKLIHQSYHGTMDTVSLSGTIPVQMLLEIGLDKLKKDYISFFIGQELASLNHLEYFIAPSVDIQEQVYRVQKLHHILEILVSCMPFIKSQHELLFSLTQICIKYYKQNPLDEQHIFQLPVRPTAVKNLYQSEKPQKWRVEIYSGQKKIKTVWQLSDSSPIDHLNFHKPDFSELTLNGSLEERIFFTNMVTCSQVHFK
UniProt Q96K58: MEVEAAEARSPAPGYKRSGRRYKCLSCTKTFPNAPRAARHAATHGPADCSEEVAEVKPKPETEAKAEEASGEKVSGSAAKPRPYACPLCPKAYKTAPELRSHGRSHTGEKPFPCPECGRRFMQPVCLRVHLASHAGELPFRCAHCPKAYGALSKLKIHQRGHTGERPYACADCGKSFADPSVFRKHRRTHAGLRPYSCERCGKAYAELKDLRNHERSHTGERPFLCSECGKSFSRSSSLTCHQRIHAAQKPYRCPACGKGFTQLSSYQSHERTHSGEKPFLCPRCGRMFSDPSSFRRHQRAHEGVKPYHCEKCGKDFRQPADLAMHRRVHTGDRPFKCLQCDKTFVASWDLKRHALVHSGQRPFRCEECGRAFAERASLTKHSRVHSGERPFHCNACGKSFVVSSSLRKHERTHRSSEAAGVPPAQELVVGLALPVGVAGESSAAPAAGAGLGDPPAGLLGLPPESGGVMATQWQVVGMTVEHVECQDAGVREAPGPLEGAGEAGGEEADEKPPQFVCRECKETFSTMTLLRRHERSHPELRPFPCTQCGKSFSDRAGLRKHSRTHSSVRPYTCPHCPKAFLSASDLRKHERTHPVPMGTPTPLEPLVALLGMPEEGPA
UniProt Q96KR1: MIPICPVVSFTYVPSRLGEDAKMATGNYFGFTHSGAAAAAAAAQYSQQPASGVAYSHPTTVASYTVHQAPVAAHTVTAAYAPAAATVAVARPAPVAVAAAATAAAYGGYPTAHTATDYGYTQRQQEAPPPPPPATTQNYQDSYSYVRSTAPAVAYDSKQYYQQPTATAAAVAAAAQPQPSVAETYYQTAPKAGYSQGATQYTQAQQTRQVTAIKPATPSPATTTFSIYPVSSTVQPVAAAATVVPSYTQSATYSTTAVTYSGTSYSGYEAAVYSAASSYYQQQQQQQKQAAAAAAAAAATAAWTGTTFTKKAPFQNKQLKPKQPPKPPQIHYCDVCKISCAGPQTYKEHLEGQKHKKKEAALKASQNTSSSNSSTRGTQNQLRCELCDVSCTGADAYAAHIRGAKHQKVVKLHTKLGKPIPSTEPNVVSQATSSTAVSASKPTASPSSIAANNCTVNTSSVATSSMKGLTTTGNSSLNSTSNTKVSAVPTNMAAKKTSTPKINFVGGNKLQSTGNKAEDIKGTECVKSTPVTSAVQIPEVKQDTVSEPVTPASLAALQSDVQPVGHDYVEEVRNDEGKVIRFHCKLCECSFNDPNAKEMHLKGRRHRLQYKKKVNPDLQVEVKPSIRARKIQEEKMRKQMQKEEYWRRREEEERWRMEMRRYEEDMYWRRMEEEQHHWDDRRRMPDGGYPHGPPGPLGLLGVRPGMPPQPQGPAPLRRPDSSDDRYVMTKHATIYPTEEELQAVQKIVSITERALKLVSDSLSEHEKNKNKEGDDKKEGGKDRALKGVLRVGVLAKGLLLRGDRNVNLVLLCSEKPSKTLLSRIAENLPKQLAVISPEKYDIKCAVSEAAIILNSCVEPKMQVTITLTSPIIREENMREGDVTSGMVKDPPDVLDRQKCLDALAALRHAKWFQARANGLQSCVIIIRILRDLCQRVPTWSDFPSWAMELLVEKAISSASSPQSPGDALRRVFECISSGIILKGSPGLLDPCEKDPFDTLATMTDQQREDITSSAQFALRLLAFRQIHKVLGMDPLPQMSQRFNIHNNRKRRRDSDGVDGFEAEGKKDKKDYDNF

Compound: Nc1nc2c(ncn2[C@@H]2O[C@H](COP(=O)(O)OP(=O)(O)OP(=O)(O)O)[C@@H](O)[C@H]2O)c(=O)[nH]1
Assay: dose-dependent thermal stabilisation call (2D-TPP, DLPTP, 10% FDR) (binary (1 = stabilised)); higher = stabilised by the compound
Conditions: system: Jurkat gel-filtered lysate; concentration range 1-500 µM
Procedure: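 2D thermal proteome profiling in gel-filtered Jurkat E6.1 lysate (2 mg/ml) treated with NaGTP (0, 1, 10, 100, 500 uM) for 10 min at room temperature, then heated 3 min at one of 12 temperatures (42-63.9 C). Soluble protein was quantified by TMT10 MS. The value is the DLPTP call of the paper: dose-dependent thermal stabilisation over all temperatures at 10% FDR (F-test of a dose-response against a flat model); one experiment, one call per tested protein.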

Target	dose-dependent thermal stabilisation call
ZMYM3 (UniProt Q14202)	inactive: 0
ZMYND8 (UniProt Q9ULU4)	inactive: 0
ZNF335 (UniProt Q9H4Z2)	inactive: 0
ZNF771 (UniProt Q7L3S4)	inactive: 0
ZNF330 (UniProt Q9Y3S2)	inactive: 0
ZNF384 (UniProt Q8TF68)	inactive: 0
ZNF8 (UniProt P17098)	inactive: 0
ZFP1 (UniProt Q6P2D0)	inactive: 0
ZHX3 (UniProt Q9H4I2)	inactive: 0
ZMYM4 (UniProt Q5VZL5)	inactive: 0
ZNF687 (UniProt Q8N1G0)	inactive: 0
ZNF281 (UniProt Q9Y2X9)	inactive: 0
ZNF24 (UniProt P17028)	inactive: 0
ZSCAN25 (UniProt Q6NSZ9)	inactive: 0
ZFX (UniProt P17010)	inactive: 0
ZKSCAN4 (UniProt Q969J2)	inactive: 0
ZSCAN26 (UniProt Q16670)	inactive: 0
ZMAT2 (UniProt Q96NC0)	inactive: 0
ZNF598 (UniProt Q86UK7)	inactive: 0
ZMIZ1 (UniProt Q9ULJ6)	inactive: 0

An excerpt from further up, for reference:
Target	dose-dependent thermal stabilisation call
ZNF384 (UniProt Q8TF68)	inactive: 0
ZNF8 (UniProt P17098)	inactive: 0
ZFP1 (UniProt Q6P2D0)	inactive: 0
ZHX3 (UniProt Q9H4I2)	inactive: 0
ZMYM4 (UniProt Q5VZL5)	inactive: 0
ZNF687 (UniProt Q8N1G0)	inactive: 0
ZNF281 (UniProt Q9Y2X9)	inactive: 0
ZNF24 (UniProt P17028)	inactive: 0
ZSCAN25 (UniProt Q6NSZ9)	inactive: 0
ZFX (UniProt P17010)	inactive: 0
ZKSCAN4 (UniProt Q969J2)	inactive: 0
ZSCAN26 (UniProt Q16670)	inactive: 0

(further entries)

Target	dose-dependent thermal stabilisation call
ZW10 (UniProt O43264)	inactive: 0
ZNF609 (UniProt O15014)	inactive: 0
ZNF292 (UniProt O60281)	inactive: 0
ZFAND6 (UniProt Q6FIF0)	inactive: 0
ZYX (UniProt Q15942)	inactive: 0
ZNF428 (UniProt Q96B54)	inactive: 0
ZPR1 (UniProt O75312)	inactive: 0
ZNF444 (UniProt Q8N0Y2)	inactive: 0
ZNHIT6 (UniProt Q9NWK9)	inactive: 0
ZZZ3 (UniProt Q8IYH5)	inactive: 0
ZNF319 (UniProt Q9P2F9)	inactive: 0
ZFPL1 (UniProt O95159)	inactive: 0
ZWILCH (UniProt Q9H900)	active: 1
ZNF22 (UniProt P17026)	active: 1
ZNF668 (UniProt Q96K58)	inactive: 0
ZNF521 (UniProt Q96K83)	inactive: 0
ZFR (UniProt Q96KR1)	inactive: 0
ZMYM2 (UniProt Q9UBW7)	inactive: 0
ZNF277 (UniProt Q9NRM2)	inactive: 0
ZNF106 (UniProt Q9H2Y7)	inactive: 0
